Measured data: PubChem BioAssay AID1259254 (NCATS, 2017)
Here is one part, drawn at random, of about 59,000 deposited reagents. About 1,550 of all reagents (2.6%) were called active. 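G2 share is only a proxy for re-replication; each gene was hit by three separate siRNAs, and active genes were retested.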 Raw values are not corrected between plates. Reagents against one gene are numbered here. The record does not give: the amount of reagent.

Assay: 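Gene knock-downs that lead to re-replication, shown by excess G2 DNA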 (primary screen)
Cell system: human HCT116 colorectal cancer cells
Knock-down reagent: single siRNA against human genes
Time to read-out: 3 days
Measured: 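Nuclei stained with Hoechst and imaged; cell-cycle phase assigned by DNA content; G2 share scaled per plate, non-targeting siRNA 0%, GMNN siRNA 100%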
Direction: G2 robust z-score and G2 cells, % of GMNN control: higher = more G2 cells, more excess DNA replication; raw share of cells in G2: higher = larger share of cells with G2 DNA content
Active means: 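An siRNA counts as active if its G2 robust z-score lies at least 5 MADs above the screen median; here such calls match roughly 38% of GMNN control or more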

no.	Gene	siRNA no.	G2 robust z-score	G2 cells, % of GMNN control	raw share of cells in G2 (%)	activity call
1	EFR3B (EFR3 homolog B)	1	-1.31	-6.23	2.54	inactive
2	EFR3B (EFR3 homolog B)	2	0.286	4.98	6.19	inactive
3	EFR3B (EFR3 homolog B)	3	0.686	7.8	6.09	inactive
4	DENND1A (DENN domain containing 1A)	1	-0.506	-0.589	4.11	inactive
5	DENND1A (DENN domain containing 1A)	2	3.43	27.1	17.4	inactive
6	DENND1A (DENN domain containing 1A)	3	-0.765	-2.41	2.26	inactive
7	ZNF222 (zinc finger protein 222)	1	-1.46	-7.28	1.11	inactive
8	ZNF222 (zinc finger protein 222)	2	-0.884	-3.25	4.54	inactive
9	ZNF222 (zinc finger protein 222)	3	0.592	7.13	6.33	inactive
10	DIABLO (diablo IAP-binding mitochondrial protein)	1	-0.165	1.8	7.22	inactive
11	DIABLO (diablo IAP-binding mitochondrial protein)	2	2.45	20.2	11.7	inactive
12	DIABLO (diablo IAP-binding mitochondrial protein)	3	-1.09	-4.72	2.37	inactive
13	RTL6 (retrotransposon Gag like 6)	1	1.94	16.6	9.63	inactive
14	RTL6 (retrotransposon Gag like 6)	2	-0.308	0.801	3.69	inactive
15	RTL6 (retrotransposon Gag like 6)	3	-0.842	-2.96	1.51	inactive
16	NDST3 (N-deacetylase and N-sulfotransferase 3)	1	-0.441	-0.133	5.22	inactive
17	NDST3 (N-deacetylase and N-sulfotransferase 3)	2	-0.392	0.209	4.78	inactive
18	NDST3 (N-deacetylase and N-sulfotransferase 3)	3	-0.316	0.746	4.88	inactive
19	ALS2CL (ALS2 C-terminal like)	1	1.04	10.3	7.4	inactive
20	ALS2CL (ALS2 C-terminal like)	2	2.74	22.3	11.7	inactive
21	ALS2CL (ALS2 C-terminal like)	3	-0.197	1.58	3.75	inactive
22	WRAP73 (WD repeat containing, antisense to TP73)	1	-0.81	-2.73	2.81	inactive
23	WRAP73 (WD repeat containing, antisense to TP73)	2	1.13	10.9	8.67	inactive
24	WRAP73 (WD repeat containing, antisense to TP73)	3	0.832	8.82	6.03	inactive
25	TRPC6	1	-0.555	-0.935	4.95	inactive
26	TRPC6	2	0.0796	3.53	5.97	inactive
27	TRPC6	3	0.998	9.99	8.27	inactive
28	TAOK2 (TAO kinase 2)	1	-0.581	-1.12	5.24	inactive
29	TAOK2 (TAO kinase 2)	2	2.02	17.2	11.4	inactive
30	TAOK2 (TAO kinase 2)	3	-0.533	-0.785	3.43	inactive
31	MIIP (migration and invasion inhibitory protein)	1	0.255	4.76	3.95	inactive
32	MIIP (migration and invasion inhibitory protein)	2	-0.994	-4.03	2.83	inactive
33	MIIP (migration and invasion inhibitory protein)	3	2.65	21.6	14.3	inactive
34	RAI1 (retinoic acid induced 1)	1	0.743	8.2	6.25	inactive
35	RAI1 (retinoic acid induced 1)	2	-1.54	-7.87	2.48	inactive
36	RAI1 (retinoic acid induced 1)	3	1.48	13.4	8.95	inactive
37	ZNF384 (zinc finger protein 384)	1	2.64	21.6	13.8	inactive
38	ZNF384 (zinc finger protein 384)	2	1.64	14.5	12.9	inactive
39	ZNF384 (zinc finger protein 384)	3	12.6	91.5	38.2	active
40	WBP11 (WW domain binding protein 11)	1	0.592	7.13	6.16	inactive
41	WBP11 (WW domain binding protein 11)	2	-0.168	1.78	5.02	inactive
42	WBP11 (WW domain binding protein 11)	3	0.165	4.13	4.56	inactive
43	TMEM94 (transmembrane protein 94)	1	2.49	20.5	14.6	inactive
44	TMEM94 (transmembrane protein 94)	2	-0.389	0.23	4.04	inactive
45	TMEM94 (transmembrane protein 94)	3	1.56	13.9	8.47	inactive
46	DYNLT2 (dynein light chain Tctex-type 2)	1	-0.606	-1.29	4.56	inactive
47	DYNLT2 (dynein light chain Tctex-type 2)	2	-0.627	-1.45	3.32	inactive
48	DYNLT2 (dynein light chain Tctex-type 2)	3	-0.221	1.41	3.85	inactive
49	MXD1 (MAX dimerization protein 1)	1	0.0635	3.41	4.82	inactive
50	MXD1 (MAX dimerization protein 1)	2	3.32	26.3	17.2	inactive
51	MXD1 (MAX dimerization protein 1)	3	1.08	10.5	6.93	inactive
52	OR2G2 (olfactory receptor family 2 subfamily G member 2)	1	4.53	34.8	18.9	inactive
53	OR2G2 (olfactory receptor family 2 subfamily G member 2)	2	0.819	8.73	8.12	inactive
54	OR2G2 (olfactory receptor family 2 subfamily G member 2)	3	0.186	4.28	3.55	inactive
55	AFF1 (ALF transcription elongation factor 1)	1	-0.39	0.227	3.55	inactive
56	AFF1 (ALF transcription elongation factor 1)	2	-0.883	-3.25	3.33	inactive
57	AFF1 (ALF transcription elongation factor 1)	3	-1.05	-4.4	1.51	inactive
58	LRCH4	1	2.09	17.6	9.73	inactive
59	LRCH4	2	4.15	32.2	18.7	inactive
60	LRCH4	3	-0.739	-2.24	3.34	inactive
61	CKM (creatine kinase, M-type)	1	-1.59	-8.22	2.89	inactive
62	CKM (creatine kinase, M-type)	2	-0.162	1.83	6.03	inactive
63	CKM (creatine kinase, M-type)	3	-0.0465	2.64	4.96	inactive
64	EFR3A (EFR3 homolog A)	1	0.783	8.48	8.31	inactive
65	EFR3A (EFR3 homolog A)	2	1.53	13.7	9.8	inactive
66	EFR3A (EFR3 homolog A)	3	0.964	9.75	6.82	inactive
67	XPO4 (exportin 4)	1	-0.548	-0.887	5.28	inactive
68	XPO4 (exportin 4)	2	1.14	11	8.23	inactive
69	XPO4 (exportin 4)	3	0.335	5.33	6.16	inactive
